From publication PMC8642546

Protein sequences, listed by entry. Tags and fused reporters are not part of them.
UniProt B7ZBB8: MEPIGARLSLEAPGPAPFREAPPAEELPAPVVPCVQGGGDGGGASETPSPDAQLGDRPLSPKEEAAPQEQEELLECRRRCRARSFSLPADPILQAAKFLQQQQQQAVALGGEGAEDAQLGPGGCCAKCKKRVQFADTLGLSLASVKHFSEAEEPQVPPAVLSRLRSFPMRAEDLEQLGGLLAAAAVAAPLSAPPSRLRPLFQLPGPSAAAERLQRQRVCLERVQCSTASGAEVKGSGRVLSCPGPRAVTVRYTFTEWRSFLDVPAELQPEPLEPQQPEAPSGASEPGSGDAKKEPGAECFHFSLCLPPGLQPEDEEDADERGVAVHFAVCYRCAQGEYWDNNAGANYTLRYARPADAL
UniProt P62136: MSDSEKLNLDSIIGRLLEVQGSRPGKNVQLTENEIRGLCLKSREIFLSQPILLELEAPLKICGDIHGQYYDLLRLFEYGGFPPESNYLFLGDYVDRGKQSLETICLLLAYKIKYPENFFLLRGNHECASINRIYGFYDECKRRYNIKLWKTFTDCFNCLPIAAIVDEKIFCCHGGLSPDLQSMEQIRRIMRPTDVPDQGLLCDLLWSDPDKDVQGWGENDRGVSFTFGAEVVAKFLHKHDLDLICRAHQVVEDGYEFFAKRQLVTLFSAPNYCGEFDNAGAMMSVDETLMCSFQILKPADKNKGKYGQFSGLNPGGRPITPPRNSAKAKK
UniProt P62140: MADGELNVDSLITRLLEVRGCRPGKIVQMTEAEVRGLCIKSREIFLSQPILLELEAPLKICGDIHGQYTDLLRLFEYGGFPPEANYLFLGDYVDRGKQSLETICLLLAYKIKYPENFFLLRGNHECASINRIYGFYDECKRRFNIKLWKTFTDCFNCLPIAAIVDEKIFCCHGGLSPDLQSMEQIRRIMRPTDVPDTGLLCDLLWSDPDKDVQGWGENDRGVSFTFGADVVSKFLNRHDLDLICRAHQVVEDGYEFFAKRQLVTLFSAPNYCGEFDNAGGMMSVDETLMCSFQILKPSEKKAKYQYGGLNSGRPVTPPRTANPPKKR
UniProt P14618: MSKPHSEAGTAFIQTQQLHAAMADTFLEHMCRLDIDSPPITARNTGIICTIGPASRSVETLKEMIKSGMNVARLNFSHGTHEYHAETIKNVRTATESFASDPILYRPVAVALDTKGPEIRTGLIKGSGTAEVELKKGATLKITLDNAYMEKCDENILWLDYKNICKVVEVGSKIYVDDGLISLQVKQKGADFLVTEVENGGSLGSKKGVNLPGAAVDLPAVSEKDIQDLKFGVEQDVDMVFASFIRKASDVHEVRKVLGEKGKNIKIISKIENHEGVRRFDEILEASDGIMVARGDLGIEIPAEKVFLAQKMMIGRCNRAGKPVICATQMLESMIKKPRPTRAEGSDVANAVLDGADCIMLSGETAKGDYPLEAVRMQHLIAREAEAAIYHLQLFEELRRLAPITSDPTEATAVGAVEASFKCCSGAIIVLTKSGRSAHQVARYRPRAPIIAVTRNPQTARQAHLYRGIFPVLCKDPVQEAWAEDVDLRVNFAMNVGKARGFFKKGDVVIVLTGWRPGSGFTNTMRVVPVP

Biological target: 3xFLAG-tagged PPP1R3G (protein phosphatase 1 regulatory subunit 3G), stably expressed in PPP1R3G-Rescue HT-29 cells (human) (UniProt B7ZBB8)
Test: affinity purification with mass spectrometry; anti-FLAG IP from lysates of PPP1R3G-Rescue cells (3xFLAG-PPP1R3G) with PPP1R3G-KO-1 cells as control, then mass spectrometry; lysis buffer 50 mM Tris pH 7.4, 137 mM NaCl, 1 mM EDTA, 1% Triton X-100, 10% glycerol, 4 °C

**Q.** How did the binding turn out when “PP1α (protein phosphatase 1 catalytic subunit alpha), endogenous in HT-29 cells (from UniProt P62136 1-330) (enzyme)” was run?
**A.** no binding

**Q.** For “PP1β (protein phosphatase 1 catalytic subunit beta), endogenous in HT-29 cells (from UniProt P62140 1-327) (enzyme)”, which binding is on record?
**A.** no binding

**Q.** With “protein phosphatase 1 gamma (PP1γ), endogenous in HT-29 cells (from UniProt P36873-1 1-323) (enzyme)” as the molecule, how does the binding read?
**A.** binds

**Q.** “pyruvate kinase PKM, endogenous in HT-29 cells (from UniProt P14618 1-531) (enzyme)” was tested. Which binding did it give?
**A.** binds

B1: glycogen phosphorylase (PYGB), endogenous in HT-29 cells (enzyme, UniProt P11216 1-843)
chain: MAKPLTDSEKRKQISVRGLAGLGDVAEVRKSFNRHLHFTLVKDRNVATPRDYFFALAHTVRDHLVGRWIRTQQHYYERDPKRIYYLSLEFYMGRTLQNTMVNLGLQNACDEAIYQLGLDLEELEEIEEDAGLGNGGLGRLAACFLDSMATLGLAAYGYGIRYEFGIFNQKIVNGWQVEEADDWLRYGNPWEKARPEYMLPVHFYGRVEHTPDGVKWLDTQVVLAMPYDTPVPGYKNNTVNTMRLWSAKAPNDFKLQDFNVGDYIEAVLDRNLAENISRVLYPNDNFFEGKELRLKQEYFVVAATLQDIIRRFKSSKFGCRDPVRTCFETFPDKVAIQLNDTHPALSIPELMRILVDVEKVDWDKAWEITKKTCAYTNHTVLPEALERWPVSMFEKLLPRHLEIIYAINQRHLDHVAALFPGDVDRLRRMSVIEEGDCKRINMAHLCVIGSHAVNGVARIHSEIVKQSVFKDFYELEPEKFQNKTNGITPRRWLLLCNPGLADTIVEKIGEEFLTDLSQLKKLLPLVSDEVFIRDVAKVKQENKLKFSAFLEKEYKVKINPSSMFDVHVKRIHEYKRQLLNCLHVVTLYNRIKRDPAKAFVPRTVMIGGKAAPGYHMAKLIIKLVTSIGDVVNHDPVVGDRLKVIFLENYRVSLAEKVIPAADLSQQISTAGTEASGTGNMKFMLNGALTIGTMDGANVEMAEEAGAENLFIFGLRVEDVEALDRKGYNAREYYDHLPELKQAVDQISSGFFSPKEPDCFKDIVNMLMHHDRFKVFADYEAYMQCQAQVDQLYRNPKEWTKKVIRNIACSGKFSSDRTITEYAREIWGVEPSDLQIPPPNIPRD
**Q.** B1 was tested. Which binding did it give?
**A.** binds

B2: hexokinase 1 (HK1), endogenous in HT-29 cells (enzyme, UniProt P19367 1-917)
chain: MIAAQLLAYYFTELKDDQVKKIDKYLYAMRLSDETLIDIMTRFRKEMKNGLSRDFNPTATVKMLPTFVRSIPDGSEKGDFIALDLGGSSFRILRVQVNHEKNQNVHMESEVYDTPENIVHGSGSQLFDHVAECLGDFMEKRKIKDKKLPVGFTFSFPCQQSKIDEAILITWTKRFKASGVEGADVVKLLNKAIKKRGDYDANIVAVVNDTVGTMMTCGYDDQHCEVGLIIGTGTNACYMEELRHIDLVEGDEGRMCINTEWGAFGDDGSLEDIRTEFDREIDRGSLNPGKQLFEKMVSGMYLGELVRLILVKMAKEGLLFEGRITPELLTRGKFNTSDVSAIEKNKEGLHNAKEILTRLGVEPSDDDCVSVQHVCTIVSFRSANLVAATLGAILNRLRDNKGTPRLRTTVGVDGSLYKTHPQYSRRFHKTLRRLVPDSDVRFLLSESGSGKGAAMVTAVAYRLAEQHRQIEETLAHFHLTKDMLLEVKKRMRAEMELGLRKQTHNNAVVKMLPSFVRRTPDGTENGDFLALDLGGTNFRVLLVKIRSGKKRTVEMHNKIYAIPIEIMQGTGEELFDHIVSCISDFLDYMGIKGPRMPLGFTFSFPCQQTSLDAGILITWTKGFKATDCVGHDVVTLLRDAIKRREEFDLDVVAVVNDTVGTMMTCAYEEPTCEVGLIVGTGSNACYMEEMKNVEMVEGDQGQMCINMEWGAFGDNGCLDDIRTHYDRLVDEYSLNAGKQRYEKMISGMYLGEIVRNILIDFTKKGFLFRGQISETLKTRGIFETKFLSQIESDRLALLQVRAILQQLGLNSTCDDSILVKTVCGVVSRRAAQLCGAGMAAVVDKIRENRGLDRLNVTVGVDGTLYKLHPHFSRIMHQTVKELSPKCNVSFLLSEDGSGKGAALITAVGVRLRTEASS
**Q.** Which binding does the source give for B2 here?
**A.** binds

No constants are given. Whether binding was seen depends on the method and setting. Binding seen in cells or lysates may run through a third protein. A yes stands for co-enrichment or nearness to the bait. Other partners may have been found. A no says only that the protein was not detected with the bait.
